Protein sequences, listed by entry. Tags and fused reporters are not part of them. Lines headed by an entry give the natural chain unless they say otherwise; changes in a name come on top.
UniProt Q5SMQ9: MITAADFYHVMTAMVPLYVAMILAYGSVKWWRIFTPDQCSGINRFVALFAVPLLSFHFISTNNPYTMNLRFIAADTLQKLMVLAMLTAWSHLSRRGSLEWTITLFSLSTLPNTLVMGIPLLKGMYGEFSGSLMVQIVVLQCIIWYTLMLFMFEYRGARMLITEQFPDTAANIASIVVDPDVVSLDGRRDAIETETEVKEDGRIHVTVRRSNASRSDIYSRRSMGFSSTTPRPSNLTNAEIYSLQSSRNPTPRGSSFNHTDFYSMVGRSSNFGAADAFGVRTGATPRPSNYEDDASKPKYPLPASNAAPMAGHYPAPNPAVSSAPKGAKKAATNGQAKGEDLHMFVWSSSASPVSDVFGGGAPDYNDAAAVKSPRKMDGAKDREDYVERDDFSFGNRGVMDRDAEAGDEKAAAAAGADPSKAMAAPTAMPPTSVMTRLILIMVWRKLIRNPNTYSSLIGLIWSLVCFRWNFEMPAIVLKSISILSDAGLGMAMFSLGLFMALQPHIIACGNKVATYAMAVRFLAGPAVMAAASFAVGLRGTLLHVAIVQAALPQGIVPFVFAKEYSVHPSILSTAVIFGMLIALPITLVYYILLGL

In publication doi:10.1101/2025.02.12.637814:

What was measured:
[1] = target: hydrophilic loop (HL) domain of wild-type PIN1A, 6X-His tagged (rice) (UniProt Q5SMQ9); assay: pull-down
[2] = target: hydrophilic loop (HL) domain of wild-type PIN1A, BiFC construct (rice) (UniProt Q5SMQ9); assay: split reporter

| Binder | binding [1] | binding [2] |
| --- | --- | --- |
| MAP Kinase 3 (MPK3), protein used in the in vitro pull-down (enzyme, UniProt Q10N20 1-369) MDGAPVAEFRPTMTHGGRYLLYDIFGNKFEVTNKYQPPIMPIGRGAYGIVCSVMNFETREMVAIKKIANAFNNDMDAKRTLREIKLLRHLDHENIIGIRDVIPPPIPQAFNDVYIATELMDTDLHHIIRSNQELSEEHCQYFLYQILRGLKYIHSANVIHRDLKPSNLLLNANCDLKICDFGLARPSSESDMMTEYVVTRWYRAPELLLNSTDYSAAIDVWSVGCIFMELINRQPLFPGRDHMHQMRLITEVIGTPTDDELGFIRNEDARKYMRHLPQYPRRTFASMFPRVQPAALDLIERMLTFNPLQRITVEEALDHPYLERLHDIADEPICLEPFSFDFEQKALNEDQMKQLIFNEAIEMNPNIRY | binds | – |
| MAP Kinase 3 (MPK3), BiFC construct (enzyme, UniProt Q10N20 1-369) MDGAPVAEFRPTMTHGGRYLLYDIFGNKFEVTNKYQPPIMPIGRGAYGIVCSVMNFETREMVAIKKIANAFNNDMDAKRTLREIKLLRHLDHENIIGIRDVIPPPIPQAFNDVYIATELMDTDLHHIIRSNQELSEEHCQYFLYQILRGLKYIHSANVIHRDLKPSNLLLNANCDLKICDFGLARPSSESDMMTEYVVTRWYRAPELLLNSTDYSAAIDVWSVGCIFMELINRQPLFPGRDHMHQMRLITEVIGTPTDDELGFIRNEDARKYMRHLPQYPRRTFASMFPRVQPAALDLIERMLTFNPLQRITVEEALDHPYLERLHDIADEPICLEPFSFDFEQKALNEDQMKQLIFNEAIEMNPNIRY | – | binds |

These are yes or no findings as the source states them, for the method shown. In cells and extracts the contact can be indirect. Binding can be weak; no strength is given.
